The results in this text go back to publication PMC6298254.

The assay has as its target T1, A20 (bait protein in the iMixPro AP-MS approach) (UniProt P21580).
T1 sequence: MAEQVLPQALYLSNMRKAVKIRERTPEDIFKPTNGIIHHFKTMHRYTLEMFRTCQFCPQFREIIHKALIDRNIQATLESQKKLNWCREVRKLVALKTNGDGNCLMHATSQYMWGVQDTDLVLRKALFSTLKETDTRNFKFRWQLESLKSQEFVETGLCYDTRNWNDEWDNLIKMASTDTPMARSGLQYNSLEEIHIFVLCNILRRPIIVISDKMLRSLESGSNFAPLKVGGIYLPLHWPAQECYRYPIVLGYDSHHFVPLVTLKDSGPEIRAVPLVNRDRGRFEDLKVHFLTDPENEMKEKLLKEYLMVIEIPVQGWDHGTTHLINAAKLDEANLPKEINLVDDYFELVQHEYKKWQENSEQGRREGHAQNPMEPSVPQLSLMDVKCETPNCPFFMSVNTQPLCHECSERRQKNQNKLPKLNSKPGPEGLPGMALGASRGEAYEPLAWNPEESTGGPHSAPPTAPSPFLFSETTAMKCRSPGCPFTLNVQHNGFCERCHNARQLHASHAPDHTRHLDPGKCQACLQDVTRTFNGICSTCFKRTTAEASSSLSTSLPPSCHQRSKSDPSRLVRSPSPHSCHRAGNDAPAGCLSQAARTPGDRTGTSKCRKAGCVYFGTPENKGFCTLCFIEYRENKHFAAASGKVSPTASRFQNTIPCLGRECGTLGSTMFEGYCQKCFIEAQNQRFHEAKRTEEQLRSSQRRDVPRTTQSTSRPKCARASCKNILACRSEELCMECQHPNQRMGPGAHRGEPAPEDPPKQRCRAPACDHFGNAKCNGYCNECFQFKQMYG
The experiment in a line: affinity purification with mass spectrometry; iMixPro (intelligent mixing of proteomes) AP-MS with A20 as bait protein; methods not given in this paper (ref. 21).

These are yes or no findings as the source states them, for the method shown. In cells and extracts the contact can be indirect. Here binding means that the protein was enriched with, or labelled near, the bait; the list need not be complete.

B1: NDP52 (Nuclear domain 10 protein 52 or CALCOCO2) (protein, UniProt Q13137 1-446)
chain: MEETIKDPPTSAVLLDHCHFSQVIFNSVEKFYIPGGDVTCHYTFTQHFIPRRKDWIGIFRVGWKTTREYYTFMWVTLPIDLNNKSAKQQEVQFKAYYLPKDDEYYQFCYVDEDGVVRGASIPFQFRPENEEDILVVTTQGEVEEIEQHNKELCKENQELKDSCISLQKQNSDMQAELQKKQEELETLQSINKKLELKVKEQKDYWETELLQLKEQNQKMSSENEKMGIRVDQLQAQLSTQEKEMEKLVQGDQDKTEQLEQLKKENDHLFLSLTEQRKDQKKLEQTVEQMKQNETTAMKKQQELMDENFDLSKRLSENEIICNALQRQKERLEGENDLLKRENSRLLSYMGLDFNSLPYQVPTSDEGGARQNPGLAYGNPYSGIQESSSPSPLSIKKCPICKADDICDHTLEQQQMQPLCFNCPICDKIFPATEKQIFEDHVFCHSL
On to B1, for which the binding result is “binds”.
